PubChem BioAssay AID1224830 – NIAID – 2016

- Purpose: 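Genes whose knock-down alters the TNF-alpha reporter response to LPS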 (primary screen)
- System: human THP-1 monocytic leukaemia cells, TNF dual-luciferase reporter clone, PMA-differentiated to macrophage-like cells
- Reagents: siRNA pool against human genes, 50 nM
- Time to read-out: LPS for 4 h, given about 3 days after siRNA transfection
- Treatment: bacterial LPS (TLR4 ligand), 10 ng/ml
- Detection: 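TNF firefly reporter luminescence divided by renilla, normalised to the plate median, then turned into a robust z-score for each replicate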
- Direction: TNF reporter robust z-score: higher = stronger TNF reporter response to LPS
- Call rule: 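Each well counts as active if its z-score is over 2.8 or under -1.5; controls are left without a call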
Shown is a random part of about 18,000 deposited reagents. In the full data, about 2,900 (16%) are marked active. 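Calls are made per well; low scores hint the gene aids the LPS response, high scores that it dampens it.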 Repeated entries: four replicate wells of each siRNA pool.

Depletion of S1PR4 came out at: TNF reporter robust z-score 0.59; inactive.
Knock-down of S1PR4 resulted in: TNF reporter robust z-score 0.91; inactive.
For S1PR4 the deposit lists TNF reporter robust z-score 1.02; inactive.
With knock-down of S1PR4, the record shows TNF reporter robust z-score 0.9; inactive.
Knock-down of TMEM37 resulted in: TNF reporter robust z-score 2.4; inactive.
TMEM37 gave TNF reporter robust z-score -0.78; inactive.
After knock-down of TMEM37, the record shows TNF reporter robust z-score 0.91; inactive.
Knock-down of TMEM37 resulted in: TNF reporter robust z-score 1.14; inactive.
After knock-down of PRKY, the screen gave TNF reporter robust z-score -0.28; inactive.
PRKY scored TNF reporter robust z-score 0.75; inactive.
Against PRKY, the values are TNF reporter robust z-score 0.6; inactive.
Silencing of PRKY came out at: TNF reporter robust z-score 0.98; inactive.
For CCDC102B the deposit lists TNF reporter robust z-score -1.57; active.
CCDC102B scored TNF reporter robust z-score -0.31; inactive.
Silencing of CCDC102B resulted in: TNF reporter robust z-score -1.2; inactive.
Depletion of CCDC102B came out at: TNF reporter robust z-score -1.4; inactive.
Depletion of CITED1 gave: TNF reporter robust z-score 0.19; inactive.
CITED1 gave TNF reporter robust z-score -0.33; inactive.
Against CITED1 the deposit lists TNF reporter robust z-score -0.24; inactive.
After knock-down of CITED1, the record shows TNF reporter robust z-score -0.11; inactive.

Targets above whose target name begins with T or t (4):
TMEM37 | TNF reporter robust z-score: 2.4; Call: inactive
TMEM37 | TNF reporter robust z-score: -0.78; Call: inactive
TMEM37 | TNF reporter robust z-score: 0.91; Call: inactive
TMEM37 | TNF reporter robust z-score: 1.14; Call: inactive

Continued.
Depletion of ZNF678 gave: TNF reporter robust z-score 0.56; inactive.
After knock-down of ZNF678, the screen gave TNF reporter robust z-score 0.15; inactive.
Knock-down of ZNF678 resulted in: TNF reporter robust z-score 0.38; inactive.
For ZNF678 the deposit lists TNF reporter robust z-score 0.47; inactive.
Depletion of PPIL2 came out at: TNF reporter robust z-score 3.95; active.
PPIL2 scored TNF reporter robust z-score -1.98; active.
Against PPIL2, the entry reads TNF reporter robust z-score -0.79; inactive.
PPIL2 gave TNF reporter robust z-score 0.38; inactive.
Against PERP the deposit lists TNF reporter robust z-score -0.85; inactive.
Depletion of PERP resulted in: TNF reporter robust z-score -0.42; inactive.
PERP gave TNF reporter robust z-score 1.14; inactive.
With knock-down of PERP, the screen gave TNF reporter robust z-score -0.17; inactive.
Depletion of C2orf78 came out at: TNF reporter robust z-score -0.9; inactive.
C2orf78 gave TNF reporter robust z-score -0.16; inactive.
Depletion of C2orf78 came out at: TNF reporter robust z-score 0.73; inactive.
With knock-down of C2orf78, the record shows TNF reporter robust z-score 1.5; inactive.
Depletion of H2AZ1 resulted in: TNF reporter robust z-score 1.59; inactive.
For H2AZ1, the values are TNF reporter robust z-score 1.73; inactive.
Silencing of H2AZ1 gave: TNF reporter robust z-score 0.78; inactive.
H2AZ1 scored TNF reporter robust z-score 0.35; inactive.
POU1F1 scored TNF reporter robust z-score 1.44; inactive.
For POU1F1, the entry reads TNF reporter robust z-score 0.46; inactive.
For POU1F1 the deposit lists TNF reporter robust z-score 0.56; inactive.
Knock-down of POU1F1 resulted in: TNF reporter robust z-score -0.03; inactive.
Depletion of VPS35L gave: TNF reporter robust z-score 0.04; inactive.
For VPS35L, the entry reads TNF reporter robust z-score 0.38; inactive.
VPS35L showed TNF reporter robust z-score -0.42; inactive.
VPS35L showed TNF reporter robust z-score -0.44; inactive.
